In patent publication US12343377B2, “Combination therapies comprising a hypomethylation agent for treating cancer” (ALX Oncology Inc., priority 2020, dated 2025):
Some entries share one result that the patent states for a list of compounds.

What was measured:
[1] = tested on: HL60-LUC2 acute myeloid leukemic model; experiment: Disseminated HL60-LUC2 systemic leukemic model, Drug A and azacitidine; assay type: in vivo, mice; settings: monotherapy, 14 doses; FIG. 5C
Method: After transplantation of HL60-LUC2 cells by intravenous tail injection into immunodeficient NSG mice (7.5E6 cells/animal), engraftment was confirmed by bioluminescence imaging and mice were randomized into 4 groups (10 mice/group). Treatment was performed as shown Table A below.
Treatment was continued until mice received 14 doses of single agent Drug A, single agent azacitidine, or Drug A in combination with azacitidine.

[2] = tested on: HL60-LUC2 acute myeloid leukemic model; experiment: Disseminated HL60-LUC2 systemic leukemic model, Drug A and venetoclax; settings: monotherapy; FIG. 8

SMILES | Day of treatment by which all mice succumbed to disease [1] | Day by which all mice succumbed to disease [2]
Nc1ncn([C@@H]2O[C@H](CO)[C@@H](O)[C@H]2O)c(=O)n1 [azacitidine, 4-amino-1-[(2R,3R,4S,5R)-3,4-dihydroxy-5-(hydroxymethyl)oxolan-2-yl]-1,3,5-triazin-2-one] | ≤ 85 days | –
CC1(C)CCC(CN2CCN(c3ccc(C(=O)NS(=O)(=O)c4ccc(NCC5CCOCC5)c([N+](=O)[O-])c4)c(Oc4cnc5[nH]ccc5c4)c3)CC2)=C(c2ccc(Cl)cc2)C1 [venetoclax, 4-(4-{[2-(4-chlorophenyl)-4,4dimethylcyclohex-1-en-1-yl]methyl}piperazin-1-yl)-N-({3-nitro-4-[(tetrahydro-2H-pyran-4ylmethyl)amino]phenyl}sulfonyl)-2-(1H-pyrrolo[2,3-b]pyridin-5-yloxy)benzamide] | – | ≤ 40 days
